{"source": "PubChem BioAssay AID651640", "about": "(Broad Institute, 2012)", "note": "Hit rate of the full screen: of about 350,000 compounds, about 6,000 (1.7%) were called active. Inconclusive means that the source gave no clear call. Such entries were picked first, then a sample of the others. Rule as the data show it: active = CPE inhibition above about 20% (passing the limit was not always enough); inconclusive = no clear call, values can overlap the other calls; tested in BHK-21 cells."}
{"assay": "protection of cells from dengue 2 killing – plate reader, single concentration, primary screen (AID 651640);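 also: 0% = median of neutral control wells and 100% = median of positive control wells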", "details": "DENV2-infected cells, cytopathic effect rescue, at 9.99 µM, hits give high values"}
{"smiles": "O=C(NCCO)C(=O)Nc1cc2c3c(c1)CCC(=O)N3CCC2", "CPE inhibition": "inconclusive: 36.2%"}
{"smiles": "CN(C)CCCNC(=O)c1cccc(-c2ccc3nccn3c2)c1", "CPE inhibition": "inconclusive: 41.6%"}
{"smiles": "COc1ccc(NC(=O)N(C)C[C@H]2Oc3c(NS(=O)(=O)c4cn(C)cn4)cccc3C(=O)N([C@@H](C)CO)C[C@@H]2C)cc1", "CPE inhibition": "active: 25.6%"}
{"smiles": "CC(=O)Nc1ccc(NC(=O)CSc2nnc3ccc(-c4ccccn4)nn23)cc1", "CPE inhibition": "inactive: -7.78%"}
{"smiles": "N#C[C@@H]1[C@H](c2ccccc2)[C@H](CO)N1S(=O)(=O)c1ccc(F)cc1", "CPE inhibition": "inconclusive: 24.4%"}
{"smiles": "COc1cccc2sc3ccc(C#CC4(N)CCCCC4)cc3c(=O)c12", "CPE inhibition": "inconclusive: 48.7%"}
{"smiles": "CN1CCN(C(=O)c2cc3c(c(-c4cccc(C5=CCCC5)c4)n2)[C@H](CCO)N([S@@](=O)C(C)(C)C)C3)CC1", "CPE inhibition": "inactive: -1.64%"}
{"smiles": "C[C@@H]1CN([C@@H](C)CO)C(=O)c2cc(NC(=O)Nc3ccc(F)cc3)ccc2O[C@@H](C)CCCCO[C@H]1CN(C)Cc1ccc(C(=O)O)cc1", "CPE inhibition": "inconclusive: 41.3%"}
{"smiles": "CCCCc1c(-c2cccc(OC)c2)ncn1CCc1ccccc1OC", "CPE inhibition": "inactive: 2.48%"}
{"smiles": "O=C(COC(=O)c1ccc(F)cc1F)c1ccc[nH]1", "CPE inhibition": "inconclusive: 63.7%"}
{"smiles": "C=CCn1cccc(C(=O)Nc2ccc(C)cc2)c1=O", "CPE inhibition": "inactive: -6.26%"}
{"smiles": "Cc1ccc(C(=O)CCC(=O)OCC(=O)Nc2ccccc2SCC#N)cc1", "CPE inhibition": "inactive: -2.16%"}
{"smiles": "CCCc1nc(SCC(=O)NC2CCCC2)c2ccccc2n1", "CPE inhibition": "inconclusive: 43.6%"}
{"smiles": "O=C(N[C@@H]1CC[C@H](CCn2cc(-c3ccccc3)nn2)O[C@H]1CO)c1cnccn1", "CPE inhibition": "inconclusive: 26.7%"}
{"smiles": "CCC1(C)CC2(CCCN(CCC(O)(c3ccccc3)c3ccccc3)C2)CCO1", "note": "(configuration not stated)", "CPE inhibition": "inactive: -5.7%"}
{"smiles": "COc1ccc(NC(=O)C2C3C=CC(O3)C2C(=O)O)cc1", "note": "(configuration not stated)", "CPE inhibition": "inconclusive: 38%"}
{"smiles": "COc1ccccc1N1CCN(C(=O)CCC(=O)O)CC1", "CPE inhibition": "inactive: 7.02%"}
{"smiles": "CCNC(=O)C[C@H]1CC[C@H]2[C@@H](COC[C@@H](O)CN2C(=O)Nc2ccc(Cl)c(Cl)c2)O1", "CPE inhibition": "inactive: -2.63%"}
{"smiles": "CC(C)(C)c1ccc(NC(=O)c2ccccc2)c([N+](=O)[O-])c1", "CPE inhibition": "inactive: 2.41%"}
{"smiles": "Cc1ccc(/C=C2\\SC(=S)N(CCCC(=O)Nc3cccc(C(=O)O)c3)C2=O)cc1", "CPE inhibition": "active: 85%"}
{"smiles": "Cc1cccc(-c2cc3nc(C)c(C)c(NCCCn4ccnc4)n3n2)c1", "CPE inhibition": "inconclusive: 41%"}
{"smiles": "COC(=O)c1ccc(Cn2c(C)c(C(=O)NCc3cccc(C(F)(F)F)c3)sc2=O)o1", "CPE inhibition": "inconclusive: 24.5%"}
